Data: the supplement of paper PMC10849652
This is one part of the list.

The chains behind the UniProt entries cited, without tags or fusion partners. Where a name states a change or a piece, a line headed by the entry shows the natural chain unless it says otherwise.
UniProt Q6ZUX7: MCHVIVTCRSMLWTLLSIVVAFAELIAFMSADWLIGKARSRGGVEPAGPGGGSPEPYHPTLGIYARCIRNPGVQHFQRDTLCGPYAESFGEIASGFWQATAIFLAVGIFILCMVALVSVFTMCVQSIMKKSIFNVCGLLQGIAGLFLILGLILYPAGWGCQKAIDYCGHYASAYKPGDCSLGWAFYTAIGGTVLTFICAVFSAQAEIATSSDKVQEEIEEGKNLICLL
UniProt Q9Y333: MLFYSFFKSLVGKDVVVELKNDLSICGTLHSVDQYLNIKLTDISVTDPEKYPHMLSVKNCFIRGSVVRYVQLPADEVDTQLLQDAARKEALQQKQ
UniProt P48357: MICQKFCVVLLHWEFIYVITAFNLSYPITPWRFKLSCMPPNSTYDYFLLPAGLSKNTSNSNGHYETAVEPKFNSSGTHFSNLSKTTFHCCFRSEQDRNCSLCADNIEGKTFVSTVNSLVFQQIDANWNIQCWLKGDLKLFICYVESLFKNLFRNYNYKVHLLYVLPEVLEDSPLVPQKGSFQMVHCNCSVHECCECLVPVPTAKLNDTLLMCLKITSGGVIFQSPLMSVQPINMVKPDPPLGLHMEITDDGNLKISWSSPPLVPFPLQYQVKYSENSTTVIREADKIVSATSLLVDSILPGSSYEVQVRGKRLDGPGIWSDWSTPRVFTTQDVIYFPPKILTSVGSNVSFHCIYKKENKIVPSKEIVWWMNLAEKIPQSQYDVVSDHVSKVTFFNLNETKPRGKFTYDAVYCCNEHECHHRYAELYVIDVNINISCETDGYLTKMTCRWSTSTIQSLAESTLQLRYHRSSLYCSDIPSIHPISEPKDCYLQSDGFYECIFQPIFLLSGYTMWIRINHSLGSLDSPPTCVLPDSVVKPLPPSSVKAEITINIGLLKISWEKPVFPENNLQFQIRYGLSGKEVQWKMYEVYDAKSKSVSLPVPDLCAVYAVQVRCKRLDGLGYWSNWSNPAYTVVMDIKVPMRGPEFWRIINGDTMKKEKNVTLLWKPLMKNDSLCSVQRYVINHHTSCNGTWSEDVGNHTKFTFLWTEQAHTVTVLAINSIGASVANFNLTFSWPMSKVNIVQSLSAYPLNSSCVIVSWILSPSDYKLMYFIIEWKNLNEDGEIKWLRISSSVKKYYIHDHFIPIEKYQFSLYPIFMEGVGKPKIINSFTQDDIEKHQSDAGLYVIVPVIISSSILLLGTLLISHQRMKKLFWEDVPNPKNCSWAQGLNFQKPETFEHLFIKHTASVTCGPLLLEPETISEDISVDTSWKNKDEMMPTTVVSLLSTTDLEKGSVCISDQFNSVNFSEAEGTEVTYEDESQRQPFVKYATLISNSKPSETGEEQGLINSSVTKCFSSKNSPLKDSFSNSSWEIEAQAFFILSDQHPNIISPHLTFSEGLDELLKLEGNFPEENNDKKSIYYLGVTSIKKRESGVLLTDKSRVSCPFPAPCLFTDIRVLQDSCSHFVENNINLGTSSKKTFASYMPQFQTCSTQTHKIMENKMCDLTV
UniProt O95214: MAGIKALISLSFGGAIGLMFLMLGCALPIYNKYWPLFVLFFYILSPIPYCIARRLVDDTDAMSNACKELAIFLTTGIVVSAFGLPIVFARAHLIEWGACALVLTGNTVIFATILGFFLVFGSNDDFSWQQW
UniProt Q6P1Q0: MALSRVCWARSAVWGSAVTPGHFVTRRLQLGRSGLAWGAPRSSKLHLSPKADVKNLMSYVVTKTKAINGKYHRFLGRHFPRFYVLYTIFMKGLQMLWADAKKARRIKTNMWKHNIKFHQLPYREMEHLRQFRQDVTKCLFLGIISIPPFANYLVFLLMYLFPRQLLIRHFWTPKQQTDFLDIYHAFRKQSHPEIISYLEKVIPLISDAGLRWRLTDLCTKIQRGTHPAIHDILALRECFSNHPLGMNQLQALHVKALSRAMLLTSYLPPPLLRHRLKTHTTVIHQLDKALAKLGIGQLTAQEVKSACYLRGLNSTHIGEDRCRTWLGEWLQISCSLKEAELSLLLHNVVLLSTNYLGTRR
UniProt Q9BX40: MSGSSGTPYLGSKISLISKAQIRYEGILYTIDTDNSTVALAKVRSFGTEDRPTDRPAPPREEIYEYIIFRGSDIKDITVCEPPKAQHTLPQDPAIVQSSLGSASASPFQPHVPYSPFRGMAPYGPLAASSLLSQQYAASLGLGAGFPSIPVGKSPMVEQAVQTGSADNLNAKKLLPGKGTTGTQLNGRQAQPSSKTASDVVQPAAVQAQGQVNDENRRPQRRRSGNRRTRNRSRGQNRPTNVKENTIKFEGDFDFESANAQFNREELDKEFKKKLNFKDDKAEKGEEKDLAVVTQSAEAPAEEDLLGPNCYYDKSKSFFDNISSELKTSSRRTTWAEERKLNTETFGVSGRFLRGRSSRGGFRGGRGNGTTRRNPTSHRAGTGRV
UniProt Q9H6V9: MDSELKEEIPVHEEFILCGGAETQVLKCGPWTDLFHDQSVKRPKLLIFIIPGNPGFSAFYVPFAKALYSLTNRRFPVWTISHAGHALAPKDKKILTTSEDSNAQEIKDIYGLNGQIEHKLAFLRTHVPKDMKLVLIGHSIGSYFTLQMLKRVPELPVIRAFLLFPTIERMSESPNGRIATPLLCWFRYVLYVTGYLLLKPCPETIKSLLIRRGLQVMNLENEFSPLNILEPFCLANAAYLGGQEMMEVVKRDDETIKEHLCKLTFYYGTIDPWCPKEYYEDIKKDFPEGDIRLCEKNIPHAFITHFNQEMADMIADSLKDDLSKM
UniProt Q15345: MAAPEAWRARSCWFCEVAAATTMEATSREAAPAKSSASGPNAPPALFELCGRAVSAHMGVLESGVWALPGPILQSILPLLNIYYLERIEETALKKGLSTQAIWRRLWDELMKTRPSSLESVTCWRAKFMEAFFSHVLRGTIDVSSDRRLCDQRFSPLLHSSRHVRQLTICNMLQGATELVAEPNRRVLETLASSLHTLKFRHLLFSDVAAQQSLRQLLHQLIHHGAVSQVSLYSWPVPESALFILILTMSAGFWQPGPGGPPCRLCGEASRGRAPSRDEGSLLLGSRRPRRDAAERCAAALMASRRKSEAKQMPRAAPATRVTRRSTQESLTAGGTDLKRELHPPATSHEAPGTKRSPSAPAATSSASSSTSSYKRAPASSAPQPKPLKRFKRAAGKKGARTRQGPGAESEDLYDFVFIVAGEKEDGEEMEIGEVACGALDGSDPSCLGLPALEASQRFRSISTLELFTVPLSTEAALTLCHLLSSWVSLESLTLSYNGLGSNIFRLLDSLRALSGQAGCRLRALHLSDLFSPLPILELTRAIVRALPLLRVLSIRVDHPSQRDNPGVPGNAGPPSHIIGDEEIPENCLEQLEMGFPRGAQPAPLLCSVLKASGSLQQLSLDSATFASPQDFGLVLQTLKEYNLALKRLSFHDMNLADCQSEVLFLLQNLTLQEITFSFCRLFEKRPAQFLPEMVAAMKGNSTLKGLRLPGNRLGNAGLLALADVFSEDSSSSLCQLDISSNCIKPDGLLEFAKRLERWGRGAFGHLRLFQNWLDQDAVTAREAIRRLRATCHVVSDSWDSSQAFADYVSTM
UniProt P49917: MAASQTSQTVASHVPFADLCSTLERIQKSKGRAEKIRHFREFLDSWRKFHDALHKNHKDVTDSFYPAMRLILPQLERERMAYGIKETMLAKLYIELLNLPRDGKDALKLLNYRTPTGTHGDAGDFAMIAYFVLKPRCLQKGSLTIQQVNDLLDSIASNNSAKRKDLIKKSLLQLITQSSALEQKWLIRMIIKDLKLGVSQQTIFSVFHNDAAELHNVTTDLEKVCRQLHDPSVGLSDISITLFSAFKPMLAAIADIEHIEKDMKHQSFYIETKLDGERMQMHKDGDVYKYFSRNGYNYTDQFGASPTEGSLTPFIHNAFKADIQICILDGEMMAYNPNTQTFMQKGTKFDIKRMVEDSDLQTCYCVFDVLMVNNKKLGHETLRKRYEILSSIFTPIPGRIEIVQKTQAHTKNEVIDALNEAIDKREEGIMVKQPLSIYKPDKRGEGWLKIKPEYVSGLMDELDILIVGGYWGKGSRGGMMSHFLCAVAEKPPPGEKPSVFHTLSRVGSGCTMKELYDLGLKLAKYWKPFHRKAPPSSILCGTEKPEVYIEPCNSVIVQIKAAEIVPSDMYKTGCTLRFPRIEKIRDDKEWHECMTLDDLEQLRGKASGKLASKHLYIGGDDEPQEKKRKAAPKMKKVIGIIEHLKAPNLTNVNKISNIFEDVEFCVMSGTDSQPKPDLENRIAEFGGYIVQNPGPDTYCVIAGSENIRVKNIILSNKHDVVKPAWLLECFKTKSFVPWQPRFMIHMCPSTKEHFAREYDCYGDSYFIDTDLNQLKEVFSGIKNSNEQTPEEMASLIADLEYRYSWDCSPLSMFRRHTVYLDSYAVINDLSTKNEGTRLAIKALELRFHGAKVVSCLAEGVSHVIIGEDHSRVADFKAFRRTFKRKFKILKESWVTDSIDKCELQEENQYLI
UniProt Q13094: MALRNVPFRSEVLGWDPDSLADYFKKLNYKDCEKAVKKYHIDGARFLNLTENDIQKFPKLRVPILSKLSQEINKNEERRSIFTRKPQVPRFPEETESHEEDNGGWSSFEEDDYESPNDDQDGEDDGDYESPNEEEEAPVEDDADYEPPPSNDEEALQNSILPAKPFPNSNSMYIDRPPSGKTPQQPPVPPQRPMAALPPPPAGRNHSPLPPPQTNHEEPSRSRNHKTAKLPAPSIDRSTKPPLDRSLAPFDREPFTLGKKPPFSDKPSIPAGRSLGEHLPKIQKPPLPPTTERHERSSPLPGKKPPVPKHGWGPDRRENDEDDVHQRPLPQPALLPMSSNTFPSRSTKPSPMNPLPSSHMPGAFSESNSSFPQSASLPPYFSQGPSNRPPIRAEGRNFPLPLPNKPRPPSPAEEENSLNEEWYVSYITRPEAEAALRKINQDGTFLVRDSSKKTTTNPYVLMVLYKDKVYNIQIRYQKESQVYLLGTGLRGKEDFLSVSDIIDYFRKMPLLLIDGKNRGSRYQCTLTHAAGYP
UniProt Q14847: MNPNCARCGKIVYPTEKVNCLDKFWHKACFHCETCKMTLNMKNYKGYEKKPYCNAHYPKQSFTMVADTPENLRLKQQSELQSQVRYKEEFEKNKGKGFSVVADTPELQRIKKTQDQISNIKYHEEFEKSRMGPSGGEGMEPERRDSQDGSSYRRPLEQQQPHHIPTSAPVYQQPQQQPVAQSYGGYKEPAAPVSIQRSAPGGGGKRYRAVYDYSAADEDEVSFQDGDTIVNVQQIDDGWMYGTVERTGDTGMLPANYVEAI
UniProt P62310: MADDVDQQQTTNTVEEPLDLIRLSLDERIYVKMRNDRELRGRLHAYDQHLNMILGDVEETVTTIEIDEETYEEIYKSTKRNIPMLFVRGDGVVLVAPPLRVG
UniProt Q68DH5: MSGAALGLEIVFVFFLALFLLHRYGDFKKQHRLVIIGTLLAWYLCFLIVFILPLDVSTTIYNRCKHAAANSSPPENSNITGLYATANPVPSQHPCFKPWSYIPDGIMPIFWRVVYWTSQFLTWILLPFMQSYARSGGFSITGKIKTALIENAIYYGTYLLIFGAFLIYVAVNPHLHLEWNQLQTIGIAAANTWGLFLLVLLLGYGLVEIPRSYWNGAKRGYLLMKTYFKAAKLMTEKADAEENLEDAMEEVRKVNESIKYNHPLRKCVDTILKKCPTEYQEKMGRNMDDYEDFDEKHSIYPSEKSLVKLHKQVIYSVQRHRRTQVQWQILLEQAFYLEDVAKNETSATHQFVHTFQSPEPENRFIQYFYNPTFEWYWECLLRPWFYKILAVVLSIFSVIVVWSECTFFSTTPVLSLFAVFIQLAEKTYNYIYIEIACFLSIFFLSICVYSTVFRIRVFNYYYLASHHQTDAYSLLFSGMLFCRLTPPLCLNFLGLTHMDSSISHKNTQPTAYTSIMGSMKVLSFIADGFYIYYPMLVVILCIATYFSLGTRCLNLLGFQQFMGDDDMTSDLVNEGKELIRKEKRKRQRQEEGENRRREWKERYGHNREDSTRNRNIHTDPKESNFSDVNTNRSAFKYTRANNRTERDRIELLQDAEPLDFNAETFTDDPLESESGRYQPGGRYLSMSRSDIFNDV
UniProt P20700: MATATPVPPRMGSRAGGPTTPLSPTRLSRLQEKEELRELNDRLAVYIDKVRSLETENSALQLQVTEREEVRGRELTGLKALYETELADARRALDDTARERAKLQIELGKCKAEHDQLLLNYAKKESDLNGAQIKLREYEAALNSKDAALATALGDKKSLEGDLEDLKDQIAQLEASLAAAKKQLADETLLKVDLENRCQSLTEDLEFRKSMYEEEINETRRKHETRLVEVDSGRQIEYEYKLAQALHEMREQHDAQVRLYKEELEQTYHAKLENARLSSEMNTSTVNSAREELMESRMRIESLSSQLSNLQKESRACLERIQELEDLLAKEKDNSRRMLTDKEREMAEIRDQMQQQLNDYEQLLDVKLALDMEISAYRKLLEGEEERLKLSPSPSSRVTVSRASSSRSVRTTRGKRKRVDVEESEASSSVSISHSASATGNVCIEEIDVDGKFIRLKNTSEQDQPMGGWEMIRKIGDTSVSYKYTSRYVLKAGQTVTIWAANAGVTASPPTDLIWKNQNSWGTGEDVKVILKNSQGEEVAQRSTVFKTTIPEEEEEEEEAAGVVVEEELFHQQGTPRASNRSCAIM

Tests used:
Assay in all cases: log2 fold change, soluble protein after heating vs DMSO (PISA); higher = thermal stabilisation; K562 lysate, 10 uM; active = over 0.2 and 3.5 SD of the protein, either way, in both replicates (recomputed)
[1] = compound: C1=CC=C(C=C1)[C@H](COC2=CC3=C(C=C2)NC(=O)N3)NC(=O)C4=CC=CN(C4=O)CC5=CC(=C(C=C5)F)F
How it was run: (§1)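 Values give the log-two fold change in thermal stability against solvent controls, from duplicates. Crude K562 extract at 1 mg/mL protein, made by dounce homogenisation in PBS pH 7.4 with 1 mM MgCl2, was treated with 10 μM compound for 30 min. After 3 min heating across 48°C-58°C, aliquots were pooled, adjusted to 0.5% NP-40 at 4°C and centrifuged at 21,000xg for 90 min. The supernatant was measured by TMTpro 16plex LC-MS/MS with channel sums equalised.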

[2] = compound: CC1=C(SC2=C1C(=N[C@H](C3=NN=C(N32)C)CC(=O)N)C4=CC=C(C=C4)Cl)C
How it was run: as §1

[3] = compound: CC1=C2C(=CC=C1)N=C(N(C2=O)C3=CC=CC=C3C)CN4C=NC5=C(N=CN=C54)N
How it was run: as §1

[4] = compound: Cc1sc2c(c1C)C(c1ccc(Cl)cc1)=N[C@@H](CC(=O)OC(C)(C)C)c1nnc(C)n1-2
How it was run: as §1

[5] = compound: c1ccc([C@@H]2C[C@H]2NC2CCNCC2)cc1
How it was run: as §1

Measured: log2 fold change

LHFPL2 (UniProt Q6ZUX7)
inactive: [1] 0.055 | [2] 0.138

LDHC (UniProt P07864)
inactive: [1] 0.264 | [2] -0.463 | [3] 0.023 | [4] -0.046

LPCAT2 (UniProt Q7L5N7)
inactive: [1] -0.054 | [2] 0.111 | [3] 0.062 | [4] -0.032

LSM2 (UniProt Q9Y333)
inactive: [1] -0.018 | [2] 0.023 | [3] 0.031 | [4] -0.003 | [5] -0.007

LRFN1 (UniProt Q9P244)
inactive: [1] 0.038 | [2] 0.085 | [3] -0.098 | [4] 0.046

LSM1 (UniProt O15116)
inactive: [1] 0.056 | [2] 0.038 | [3] 0 | [4] 0.038 | [5] 0.032

LPIN2 (UniProt Q92539)
inactive: [1] 0.01 | [2] -0.037 | [3] -0.004 | [4] -0.047 | [5] -0.012

LEPR (UniProt P48357)
inactive: [1] 0.013 | [2] -0.044 | [3] -0.035 | [4] -0.009 | [5] -0.068

LIPT2 (UniProt A6NK58)
inactive: [1] 0.205 | [2] 0.131

LINGO1 (UniProt Q96FE5)
inactive: [1] -0.116 | [2] 0.085 | [3] 0.005 | [4] -0.009 | [5] 0.052

LENG1 (UniProt Q96BZ8)
inactive: [1] 0.07 | [2] 0.006 | [3] -0.021 | [4] 0.013 | [5] -0.05

LEPROTL1 isoform 2 (UniProt O95214)
inactive: [1] -0.008 | [2] -0.171 | [3] -0.078 | [4] -0.032

LLPH (UniProt Q9BRT6)
inactive: [1] -0.079 | [2] 0.061 | [3] -0.027 | [4] -0.07 | [5] 0.106

LRRFIP2 (UniProt Q9Y608)
inactive: [1] 0.034 | [2] -0.028 | [3] -0.026 | [4] -0.002 | [5] 0.004

LRBA (UniProt P50851)
inactive: [1] -0.003 | [2] 0.004 | [3] 0.012 | [4] -0.003 | [5] -0.003

LIG3 (UniProt P49916)
inactive: [1] -0.003 | [2] -0.018 | [3] -0.014 | [4] -0.035 | [5] 0.021

LIMS1 isoform 3 (UniProt P48059)
inactive: [1] -0.006 | [2] 0.006 | [3] -0.026 | [4] 0.037 | [5] -0.057

LHPP (UniProt Q9H008)
inactive: [1] 0.061 | [2] -0.121 | [3] -0.108 | [4] -0.037 | [5] -0.018

LRRC7 (UniProt Q96NW7)
inactive: [1] -0.001 | [2] -0.047 | [3] -0.309 | [4] 0 | [5] -0.001

LETMD1 isoform 7 (UniProt Q6P1Q0)
inactive: [1] -0.058 | [2] 0.003 | [3] -0.091 | [4] 0.027 | [5] -0.003

LSM14B (UniProt Q9BX40)
inactive: [1] 0.005 | [2] 0.067

LSM12 (UniProt Q3MHD2)
inactive: [1] 0.042 | [2] 0.073 | [3] 0.055 | [4] -0.006 | [5] -0.006

LDAH isoform 2 (UniProt Q9H6V9)
inactive: [1] -0.119 | [2] 0.018 | [3] 0.001 | [4] 0.075 | [5] -0.002

LRRC14 (UniProt Q15048)
inactive: [1] 0.017 | [2] 0.104 | [3] 0.02 | [4] -0.069 | [5] -0.049

LDB1 (UniProt Q86U70)
inactive: [1] 0.051 | [2] -0.009 | [3] -0.027 | [4] -0.008 | [5] -0.069

LOR (UniProt P23490)
inactive: [1] -0.468 | [2] 0.012

LIMD2 (UniProt Q9BT23)
inactive: [1] -0.09 | [2] 0.041

LIMK1 (UniProt P53667)
inactive: [1] 0.007 | [2] -0.015 | [3] -0.07 | [4] -0.024 | [5] 0.007

LNPK (UniProt Q9C0E8)
inactive: [1] 0.066 | [2] 0 | [3] 0.009 | [4] -0.046 | [5] -0.077

LCP1 (UniProt P13796)
inactive: [1] 0.032 | [2] -0.013 | [3] -0.026 | [4] -0.004 | [5] -0.072

LRPPRC (UniProt P42704)
inactive: [1] -0.067 | [2] 0.043 | [3] 0.049 | [4] 0.039 | [5] 0.122

LCLAT1 (UniProt Q6UWP7)
inactive: [1] 0.032 | [2] 0.015 | [3] 0.085 | [4] -0.059 | [5] -0.014

LSR (UniProt Q86X29)
inactive: [1] -0.048 | [2] -0.02 | [3] 0.014 | [4] 0.005 | [5] -0.012

LGALS8 isoform 2 (UniProt O00214)
inactive: [1] -0.024 | [2] -0.019 | [3] 0.069 | [4] 0.002 | [5] -0.006

LENG8 (UniProt Q96PV6)
inactive: [1] 0.042 | [2] -0.021 | [3] -0.069 | [4] 0.105 | [5] -0.023

LNX2 (UniProt Q8N448)
inactive: [1] 0.128 | [2] -0.057 | [3] 0.34 | [4] -0.135 | [5] -0.014

LRRC41 (UniProt Q15345)
inactive: [1] 0.019 | [2] 0.03 | [3] 0.009 | [4] 0.038

LPCAT3 (UniProt Q6P1A2)
inactive: [1] -0.116 | [2] -0.044 | [3] 0.052 | [4] -0.089 | [5] 0.044

LRRC40 (UniProt Q9H9A6)
inactive: [1] 0.001 | [2] 0.003 | [3] 0.003 | [4] 0.012 | [5] 0.034

LIG4 (UniProt P49917)
inactive: [1] -0.04 | [2] 0.083 | [3] -0.056 | [4] -0.002 | [5] 0.078

LSS (UniProt P48449)
inactive: [1] 0.016 | [2] -0.083 | [3] 0.014 | [4] -0.012 | [5] -0.007

LCP2 (UniProt Q13094)
inactive: [1] 0.038 | [2] -0.017 | [3] 0.008 | [4] 0.045 | [5] 0.013

LASP1 (UniProt Q14847)
inactive: [1] 0.002 | [2] -0.004 | [3] -0.009 | [4] 0.006 | [5] -0.008

Pulled one by one from above, two records:
LRRC40 (UniProt Q9H9A6)
inactive: [1] 0.001 | [2] 0.003 | [3] 0.003 | [4] 0.012 | [5] 0.034

LSS (UniProt P48449)
inactive: [1] 0.016 | [2] -0.083 | [3] 0.014 | [4] -0.012 | [5] -0.007

More records:

LSM3 (UniProt P62310)
inactive: [1] 0.038 | [2] 0.045 | [3] 0.038 | [4] 0.006 | [5] -0.079

LMBRD2 (UniProt Q68DH5)
inactive: [1] 0.049 | [2] -0.066 | [3] 0.036 | [4] -0.115 | [5] 0.007

LMF2 (UniProt Q9BU23)
inactive: [1] -0.033 | [2] 0.033 | [3] 0.046 | [4] 0.005 | [5] -0.089

LDHA isoform 3 (UniProt P00338)
inactive: [1] 0.024 | [2] 0.023 | [3] -0.022 | [4] -0.004 | [5] 0.024

LMTK2 (UniProt Q8IWU2)
inactive: [1] 0.039 | [2] -0.022 | [3] -0.001 | [4] -0.137 | [5] 0.009

LPCAT1 (UniProt Q8NF37)
inactive: [1] -0.071 | [2] 0.056 | [3] 0.066 | [4] 0 | [5] -0.115

LGALS3 (UniProt P17931)
inactive: [1] -0.055 | [2] 0.082 | [3] 0 | [4] -0.257 | [5] 0.009

LMNB1 (UniProt P20700)
inactive: [1] -0.01 | [2] 0 | [3] -0.012 | [4] 0.058 | [5] -0.004

LRBA, A0A494BZW2
inactive: [1] 0.03 | [2] -0.013 | [3] 0.028 | [4] -0.033 | [5] 0.039

LEO1 (UniProt Q8WVC0)
inactive: [1] 0.034 | [2] -0.022 | [3] 0.023 | [4] -0.023 | [5] -0.021

LDLRAP1 (UniProt Q5SW96)
inactive: [1] -0.083 | [2] -0.087 | [3] -0.12 | [4] -0.006 | [5] 0.131

LDLR (UniProt P01130)
inactive: [1] -0.054 | [2] -0.075 | [3] 0.02 | [4] -0.052 | [5] 0.037

LIN54 (UniProt Q6MZP7)
inactive: [1] -0.004 | [2] -0.006 | [3] -0.054 | [4] 0.049 | [5] 0
